In PubChem BioAssay AID540276 (National Center for Advancing Translational Sciences (NCATS), 2011):
Hit rate of the full screen: of about 300,000 compounds, about 5,400 (1.8%) were called active. The inconclusive results got no clear call from the source; some entries with a clear call stand among them for comparison. Calls come from the whole dose curve; tested in HEK293 cells. Potencies of inconclusive entries are doubtful fits and often do not repeat.

Experiment: qHTS for inhibitors of binding or entry into cells for Marburg Virus
Conditions: Marburg virus pseudotyped entry inhibition, cell reporter; activity change, negative = inhibition: at 37.8 µM (top of the series) unless noted
% is set by controls: 0 for no effect and ±100 for the full control effect; potency is the fitted concentration of half-maximal effect.

Row | Structure (SMILES) | Potency | activity change, negative = inhibition
1 | CCN(CC)CCCNC(=O)C1c2ccccc2C(=O)N(C)C1c1ccc(OC)cc1 (stereo not drawn) | inconclusive: 29.1 µM [inhibitor, single point] | 
2 | O=C(Nc1ccc(O)cc1)c1c(O)c2c([nH]c1=O)CCCC2 | inactive | 
3 | Cc1ccc2nc(SCC(=O)Nc3cc(C(F)(F)F)ccc3N3CCOCC3)[nH]c2c1 | inconclusive: 3.16 µM [inhibitor, partial curve, poor fit] | 
4 | FC(F)(F)c1cc(NC(=S)NC(c2ccccc2)c2ccccc2)cc(C(F)(F)F)c1 | inconclusive: 5.31 µM [inhibitor, single point] | 
5 | Cn1ccsc1=NC(=O)c1ccc(OC(F)(F)F)cc1 | inconclusive: 3.55 µM [activator, partial curve, poor fit] | 
6 | CC(=C/c1ccccc1)/C=N/Nc1nc(N2CCCCC2)nc(N2CCCCC2)n1 |  | inactive: -2.12%
7 | CC(C)c1ccc(C2c3c(-c4ccccc4O)n[nH]c3C(=O)N2CCc2ccccc2)cc1 (stereo not drawn) | inconclusive: 1.58 µM [inhibitor, partial curve, poor fit] | 
8 | O=C(N/N=C/c1ccccc1O)c1ccc2c(c1)OCO2 | active: 5.01 µM | 
9 | Cc1ccc(NC(=O)c2cccs2)cc1S(=O)(=O)Nc1cccc(Cl)c1 | inconclusive: 35.5 µM [inhibitor, single point] | 
10 | CC1=CC(C)(C)N(S(=O)(=O)c2ccc(F)cc2)c2ccc(C)cc21 | inconclusive: 7.3 µM [inhibitor, partial curve, poor fit] | 
11 | Cc1ccc(C)c(NS(=O)(=O)c2ccc3c(c2)Cc2cc(S(=O)(=O)Nc4cc(C)ccc4C)ccc2-3)c1 | inconclusive: 28.2 µM [inhibitor, single point] | 
12 | CC1=CC(=C2C(=O)c3ccccc3C2=O)C=C(C)N1Cc1ccco1 | inconclusive: 0.794 µM [activator, single point] | 
13 | CC1(C)CC(C(=O)Nc2ccccc2)C(=O)O1 (stereo not drawn) |  | inactive: 7.76% [at 46.1 µM]
14 | COc1ccc(CN2CCN(C(=O)C3CCN(S(=O)(=O)c4cccs4)CC3)CC2)c(OC)c1OC | inconclusive: 35.5 µM [inhibitor, partial curve, poor fit] | 
15 | CC(C)Oc1ccc(OCCCN2CCCCCC2)cc1 | inconclusive: 15.8 µM [inhibitor, single point] | 
16 | COc1ccc(C(OCC(O)CN(C)C2CCCCC2)c2ccc(OC)cc2)cc1 (stereo not drawn) | inconclusive: 35.5 µM [inhibitor, single point] | 
17 | Cc1cccc(NC(=O)c2cccc(S(=O)(=O)N3CCCC3)c2)n1 | inconclusive: 7.94 µM [activator, partial curve, poor fit] | 
18 | CS(=O)(=O)c1ccccc1COC(=O)Nc1ccc(Cl)cc1 | inconclusive: 16.4 µM [activator, single point] | 
19 | O=C(N/N=C/c1ccccc1OCc1ccccc1)c1cccnc1 |  | inactive: -25.7%
20 | CCCCc1ccc(NC(=S)N2CCCC(CO)C2)cc1 (stereo not drawn) | inconclusive: 0.282 µM [activator, partial curve, poor fit] | 
21 | CC1(C)Oc2ccc3ccc(=O)oc3c2/C(=C/NC2CCCCC2)C1=O | inconclusive: 35.5 µM [inhibitor, single point] | 
22 | Cc1ccc(C(=O)CC2(O)C(=O)N(Cc3ccccc3Cl)c3ccccc32)o1 (stereo not drawn) |  | inactive: -11.3%

Row | Structure (SMILES) | Potency | activity change, negative = inhibition
23 | O=C(Nc1ccc(S(=O)(=O)NCCc2ccccc2)cc1)c1ccco1 |  | inactive: 12.4%
24 | CCS(=O)(=O)c1ccc(O)c(NC(=O)/C=C/c2ccccc2)c1 | inconclusive: 3.98 µM [activator, partial curve, poor fit] | 
25 | C=C(C)COc1ccc(-c2[nH]ncc2Oc2ccccc2OC)c(O)c1 |  | inactive: -16.6%
26 | CN1CCN(C(=S)Nc2cccc(C(F)(F)F)c2)CC1 | inconclusive: 7.08 µM [activator, partial curve, poor fit] | 
27 | COc1cc(C(=S)N2CCOCC2)cc(OC)c1OC(=O)Cc1ccc(F)cc1 | inconclusive: 35.5 µM [inhibitor, single point] | 
28 | O=C(CSc1ccc(-c2ccco2)nn1)NCc1ccc(Cl)cc1 | inconclusive: 1.41 µM [activator, partial curve, poor fit] | 
29 | Cc1cc(NC(=O)CN(C)CC(=O)Nc2ccc(F)c(F)c2F)no1 | inconclusive: 1.26 µM [activator, single point] | 
30 | O=C(NCCCn1ccnc1)c1cccc(S(=O)(=O)Nc2ccc(Br)cc2)c1 |  | inactive: -6.45%
31 | Clc1ccc2nc(-c3ccc4c(c3)OCO4)cn2c1 | inconclusive: 5.01 µM [inhibitor, single point] | 
32 | COc1ccc(Nc2nc(NCc3ccco3)nc(N)c2[N+](=O)[O-])cc1 |  | inactive: 14.9% [at 14.2 µM]
33 | Cc1ccc(Nc2c(-c3ccc(N(C)C)cc3)nc3ccccn23)cc1 | inconclusive: 35.5 µM [activator, partial curve, poor fit] | 
34 | O=[N+]([O-])c1cccc(S(=O)(=O)N2CCCCCC2)c1 | inconclusive: 0.447 µM [activator, full curve, poor fit] | 
35 | CCOC(=O)c1ccc2c(c1)n(CC)c(/C=C/N(C)c1ccccc1)[n+]2CC | inconclusive: 3.55 µM [inhibitor, partial curve] | 
36 | COc1cc(NC(=O)CCc2c(C)noc2C)c(Cl)cc1C(=O)O | inconclusive: 10 µM [activator, single point] | 
37 | COc1ccc(CNC(=O)[C@H](Cc2c[nH]c3ccccc23)NC(C)=O)cc1OC | inconclusive: 35.5 µM [activator, single point] | 
38 | COC(=O)CSC1=C(C#N)C(c2ccc(C)o2)CC(=O)N1 (stereo not drawn) | active: 1.78 µM | 
39 | COC(=O)N1CC=CC1(C)C(=O)NCc1cc(F)cc(C(F)(F)F)c1 (stereo not drawn) |  | inactive: -0.922%
40 | COC(=O)/C(C(C)=O)=C(\C=C\N(C)C)N(C)C |  | inactive: 14.9%
41 | Cc1cccc(N2CCN(C(=S)c3ccc([N+](=O)[O-])cc3)CC2)c1 |  | inactive: -11.6%
42 | O=C(O)c1c[nH]c2c(C(F)(F)F)cccc2c1=O | inconclusive: 2.31 µM [inhibitor, partial curve, poor fit] | 
43 | O=C(O)COc1ccccc1/C=N/NC(=O)CSc1nc2ccccc2n1Cc1ccccc1Cl |  | inactive: 0.139%
